These are yes or no findings as the source states them, for the method shown. In cells and extracts the contact can be indirect. Some binding calls cover weakened binding; strength is not graded here. For some of these results: Sequences can lack the tags named with a protein.
How the values were obtained:
[1] = molecular target: T1, MOTS-c fused with green fluorescent protein (MOTS-c-GFP) (human); test: co-IP; IP with GFP antibodies from lysates of MOTS-c-GFP HPMVECs under normoxia or HR, also after siRNA-MYH9 or siRNA-NC; Protein A/G magnetic beads, antibody overnight at 4 °C; Western blot
T1 sequence: MRWQEMGYIFYPRKLR

Protein sequences, listed by entry. Tags and fused reporters are not part of them.
UniProt P35579: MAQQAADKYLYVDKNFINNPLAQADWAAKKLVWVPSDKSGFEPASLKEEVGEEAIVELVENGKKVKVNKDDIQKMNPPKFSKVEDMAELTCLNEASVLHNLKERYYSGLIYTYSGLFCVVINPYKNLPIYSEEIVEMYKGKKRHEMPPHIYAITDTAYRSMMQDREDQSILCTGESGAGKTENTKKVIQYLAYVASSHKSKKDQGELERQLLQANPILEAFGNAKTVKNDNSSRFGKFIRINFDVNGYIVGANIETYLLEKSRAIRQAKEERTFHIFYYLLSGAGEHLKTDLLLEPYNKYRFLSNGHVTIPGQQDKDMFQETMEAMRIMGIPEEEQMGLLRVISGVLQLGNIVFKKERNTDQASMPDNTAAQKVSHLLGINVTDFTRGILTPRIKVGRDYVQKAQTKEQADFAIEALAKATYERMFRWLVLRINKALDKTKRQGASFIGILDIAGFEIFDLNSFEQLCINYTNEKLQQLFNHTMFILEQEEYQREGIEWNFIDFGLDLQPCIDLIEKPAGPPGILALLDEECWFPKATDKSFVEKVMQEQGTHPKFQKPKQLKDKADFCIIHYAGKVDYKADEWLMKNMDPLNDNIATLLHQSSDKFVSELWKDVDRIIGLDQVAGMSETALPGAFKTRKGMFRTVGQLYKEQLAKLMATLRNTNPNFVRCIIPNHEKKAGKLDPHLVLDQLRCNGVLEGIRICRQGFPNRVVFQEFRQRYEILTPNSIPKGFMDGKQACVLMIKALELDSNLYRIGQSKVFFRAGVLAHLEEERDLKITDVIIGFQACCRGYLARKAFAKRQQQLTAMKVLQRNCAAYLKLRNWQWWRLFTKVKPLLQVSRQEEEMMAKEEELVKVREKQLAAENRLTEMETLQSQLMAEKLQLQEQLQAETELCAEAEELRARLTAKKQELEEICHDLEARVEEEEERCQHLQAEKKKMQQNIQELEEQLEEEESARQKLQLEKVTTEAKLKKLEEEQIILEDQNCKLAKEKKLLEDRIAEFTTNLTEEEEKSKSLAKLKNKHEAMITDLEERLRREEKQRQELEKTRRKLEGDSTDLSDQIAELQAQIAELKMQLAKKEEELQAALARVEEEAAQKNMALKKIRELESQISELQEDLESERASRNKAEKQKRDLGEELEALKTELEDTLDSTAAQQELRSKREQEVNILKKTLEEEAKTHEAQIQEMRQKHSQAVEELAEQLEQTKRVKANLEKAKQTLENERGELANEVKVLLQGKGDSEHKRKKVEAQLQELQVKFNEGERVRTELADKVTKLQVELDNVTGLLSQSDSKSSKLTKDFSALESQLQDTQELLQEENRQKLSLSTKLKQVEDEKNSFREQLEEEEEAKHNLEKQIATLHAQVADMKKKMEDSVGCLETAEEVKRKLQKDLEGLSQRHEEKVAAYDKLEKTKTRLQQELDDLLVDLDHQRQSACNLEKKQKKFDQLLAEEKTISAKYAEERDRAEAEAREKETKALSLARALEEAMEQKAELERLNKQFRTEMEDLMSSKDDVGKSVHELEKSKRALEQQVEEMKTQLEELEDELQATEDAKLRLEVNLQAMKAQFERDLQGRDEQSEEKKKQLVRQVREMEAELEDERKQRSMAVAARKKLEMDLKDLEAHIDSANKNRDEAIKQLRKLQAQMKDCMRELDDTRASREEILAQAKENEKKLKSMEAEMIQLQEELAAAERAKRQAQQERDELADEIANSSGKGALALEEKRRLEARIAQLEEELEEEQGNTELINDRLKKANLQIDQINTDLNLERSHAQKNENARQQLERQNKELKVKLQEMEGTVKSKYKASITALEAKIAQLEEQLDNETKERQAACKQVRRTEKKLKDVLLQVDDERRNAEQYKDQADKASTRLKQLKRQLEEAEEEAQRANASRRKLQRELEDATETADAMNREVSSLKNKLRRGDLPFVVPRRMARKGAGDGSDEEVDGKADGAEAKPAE
UniProt P68400: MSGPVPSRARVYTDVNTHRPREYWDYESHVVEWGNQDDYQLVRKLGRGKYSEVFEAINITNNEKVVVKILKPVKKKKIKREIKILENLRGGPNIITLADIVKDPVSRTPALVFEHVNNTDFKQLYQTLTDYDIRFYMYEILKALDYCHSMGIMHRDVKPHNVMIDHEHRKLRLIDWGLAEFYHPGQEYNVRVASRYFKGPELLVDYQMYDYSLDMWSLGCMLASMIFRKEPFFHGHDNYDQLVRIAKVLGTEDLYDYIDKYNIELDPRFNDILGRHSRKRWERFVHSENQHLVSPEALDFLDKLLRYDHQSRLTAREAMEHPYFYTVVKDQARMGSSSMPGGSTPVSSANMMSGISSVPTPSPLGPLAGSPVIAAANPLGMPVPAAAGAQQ

[2] = molecular target: myosin heavy chain 9 (MYH9) (human (endogenous in HPMVECs)) (UniProt P35579); test: co-IP; IP of endogenous MYH9 from lysates of MOTS-c-GFP HPMVECs under normoxia or HR; Protein A/G magnetic beads, antibody overnight at 4 °C; Western blot

binding [1] | binding [2] | Substance
binds |  | MYH9 phosphorylated at Ser1943 (p-MYH9) (from UniProt P35579 1-1960)
 | binds | PKCα (from UniProt P17252 1-672) (enzyme)
 | binds | casein kinase II subunit alpha (CK2A) (from UniProt P68400 1-391) (enzyme)
binds |  | myosin heavy chain 9 (MYH9) (from UniProt P35579 1-1960)

Reference: article PMC12150175
